One may read the IC50 as the concentration at which inhibition is half-maximal.

Protein sequences, listed by entry. Tags and fused reporters are not part of them. Residues count along the entry.
UniProt B9VUU3, 1227-1440, stated change not applied: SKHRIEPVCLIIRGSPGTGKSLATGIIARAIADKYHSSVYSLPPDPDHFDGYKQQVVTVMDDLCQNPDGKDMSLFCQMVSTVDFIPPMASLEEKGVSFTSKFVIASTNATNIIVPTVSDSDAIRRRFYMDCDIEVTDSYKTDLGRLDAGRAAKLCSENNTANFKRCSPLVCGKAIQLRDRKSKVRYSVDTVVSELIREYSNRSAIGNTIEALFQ

For the test, the target named is T1, EV-A71 Δ2C^116-329 (Enterovirus A71, UniProt B9VUU3).
T1 construct: N-terminally truncated mature protein 2C residues 116-329, cut from the genome polyprotein; N-terminal MBP tag and C-terminal His6 (kept, MBP-Δ2C-(His)6); codon-optimised synthetic gene in pMALc5x, E. coli Rosetta 2(DE3) pLysS; active as hexamer
Put plainly: malachite green ATPase assay. The class given is biochemical.

The compound `CNCCC(Oc1ccc(C(F)(F)F)cc1)c1ccccc1` (racemic) [fluoxetine, reference compound] displayed an IC50 of 537 µM.

Source of the values: paper doi:10.1101/2022.10.06.511132v1, “Development of Enterovirus anti-viral agents that target the viral 2C protein” (biorxiv, 2022).
